Results are given in words; binding and its absence hold for the method and conditions named. For some of these results: Binding seen in cells or lysates may run through a third protein. Some binding calls cover weakened binding; strength is not graded here. Where a sequence is shown, tags or fusion partners need not be part of it. Blank lines part the entries; values can stand above or below the binder they belong to.
Assays:
[1] = biological target: FLAG-tagged wild type PAK4 (human) (UniProt O96013); test: co-immunoprecipitation
[2] = biological target: Flag-PAK4cat, catalytic domain of human PAK4 expressed in mammalian cells (human) (UniProt O96013); test: co-expression in mammalian cells, co-crystals, immuno-staining
[3] = biological target: FLAG-tagged wild type PAK4 (human) (UniProt O96013); test: co-immunoprecipitation from mammalian cell lysates, anti-Flag Sepharose, anti-HA Western
[4] = biological target: T1, FLAG-tagged activated PAK4 with a mutated AID, PAK4* (RR48/49AE) (human) (UniProt O96013); test: as above
T1 sequence (looked up): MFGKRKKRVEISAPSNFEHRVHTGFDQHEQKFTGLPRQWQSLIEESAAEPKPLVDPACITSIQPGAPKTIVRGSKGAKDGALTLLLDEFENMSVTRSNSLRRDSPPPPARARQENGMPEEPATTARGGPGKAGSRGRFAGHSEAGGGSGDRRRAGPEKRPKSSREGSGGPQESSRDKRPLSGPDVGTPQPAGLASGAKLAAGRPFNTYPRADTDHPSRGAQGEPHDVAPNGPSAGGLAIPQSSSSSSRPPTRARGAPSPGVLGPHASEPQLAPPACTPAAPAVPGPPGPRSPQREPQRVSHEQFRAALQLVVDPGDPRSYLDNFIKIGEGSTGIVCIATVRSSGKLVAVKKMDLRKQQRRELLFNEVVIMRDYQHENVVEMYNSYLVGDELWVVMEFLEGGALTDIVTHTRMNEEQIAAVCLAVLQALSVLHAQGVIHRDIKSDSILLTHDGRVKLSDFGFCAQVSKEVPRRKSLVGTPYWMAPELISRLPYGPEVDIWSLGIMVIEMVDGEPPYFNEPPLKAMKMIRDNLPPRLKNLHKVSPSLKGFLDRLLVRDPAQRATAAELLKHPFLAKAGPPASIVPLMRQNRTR

[5] = biological target: Flag-PAK4cat, catalytic domain of human PAK4 expressed in mammalian cells (human) (UniProt O96013); test: co-expression with PAK4cat in mammalian cells, formation of co-crystals
[6] = biological target: Flag-PAK4cat, catalytic domain of human PAK4 expressed in mammalian cells (human) (UniProt O96013); test: co-expression in mammalian cells, fluorescent co-crystals

binding [1]: binds
binding [2]: binds
binding [3]: binds
binding [4]: binds
B1: full-length HA-Inka1 (human Inka1, FAM212A) (protein, UniProt Q96EL1 1-285, looked up, not shown: small tags and cut ends)
chain: MDMHSARLDSFLSQLRWELLCGRDTGSPSMPGPLQPTSQTGPDVQPSHQLRASGALEEDSVCCVEEEEEEEEEAVVTEDRDAALGGPREHALDWDSGFSEVSGSTWREEELPVSQRPAPSAQPLRRQCLSVSGLPMPSRAPVASVPPVHHPRPKSTPDACLEHWQGLEAEDWTAALLNRGRSRQPLVLGDNCFADLVHNWMELPETGSEGGDGGGHRARARPPQFLLGLSEQLRRRLARARRTAMAGKRLSCPPRPEPELPADVSRFAALMSCRSRQPIICNDVS

binding [5]: binds
B2: HA-tagged Inka1 (165-285) (protein, human, UniProt Q96EL1 165-285, looked up, not shown: small tags and cut ends)
chain: QGLEAEDWTAALLNRGRSRQPLVLGDNCFADLVHNWMELPETGSEGGDGGGHRARARPPQFLLGLSEQLRRRLARARRTAMAGKRLSCPPRPEPELPADVSRFAALMSCRSRQPIICNDVS

binding [5]: binds
Binder: RPEPELPADVSRFAALMSCRSRQPIICNDVS (peptide, human, UniProt Q96EL1 255-285, looked up, not shown: small tags and cut ends) [HA-tagged Inka1 (255-285), the C-terminal 31 amino acid of Inka1]

binding [6]: binds
B3: GFP-Inka1 (protein, human, UniProt Q96EL1 1-287, looked up, not shown: large carriers)
chain: MDMHSARLDSFLSQLRWELLCGRDTGSPSMPGPLQPTSQTGPDVQPSHQLRASGALEEDSVCCVEEEEEEEEEAVVTEDRDAALGGPREHALDWDSGFSEVSGSTWREEELPVSQRPAPSAQPLRRQCLSVSGLPMPSRAPVASVPPVHHPRPKSTPDACLEHWQGLEAEDWTAALLNRGRSRQPLVLGDNCFADLVHNWMELPETGSEGGDGGGHRARARPPQFLLGLSEQLRRRLARARRTAMAGKRLSCPPRPEPELPADVSRFAALMSCRSRQPIICNDVSYL

Source: patent US10822723
